Measurements reported in PubChem BioAssay AID1347075 (National Center for Advancing Translational Sciences (NCATS), 2019).
“And” between values parts separate entries of the source, which are not always exact repeats. Equal entries are not always repeated. The campaign covered roughly 400,000 compounds. About 5,500 (1.4%) were called active. The inconclusive results got no clear call from the source; some entries with a clear call stand among them for comparison. The call rests on the fitted dose curve; in most records, active means well fitted cell-killing curve with a large enough effect; inconclusive means small, poorly fitted or top-dose-only effect, or effect the other way; inactive means flat fitted curve, though single readings scatter. Where the call is inconclusive, the potency comes from a doubtful curve fit.

test: qHTS assay for MDR1-selective chemotherapeutics: Primary screen using the parental adenocarcinoma cell KB-3-1; details: KB-3-1 viability, CellTiter-Glo ATP luminescence, 72 h; activity change, negative = cytotoxic: at 46.1 µM (top of the series); further: nearly all actives have a fitted effect of over 60% in size
Procedure, shortened: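 Luminescent ATP read-out (CellTiter-Glo) measures survival of drug-naive KB-3-1 cells after 72 h compound exposure at 37 °C. Titration series was screened from lowest to highest concentration, with DMSO vehicle plates as background controls.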
On the % scale 0 is the no-effect control and ±100 the full control effect; potency means the concentration at half of the fitted maximal effect.

| SMILES | Potency | activity change, negative = cytotoxic |
| --- | --- | --- |
| COc1ccc(-c2nnc(SCC(=O)Nc3cccc(Cl)c3)o2)cc1 | inconclusive: 29.1 µM [cytotoxic, single point] | – |
| CC(=O)Nc1nonc1-c1nc2ccccc2n1Cc1ccccc1Br | inconclusive: 29.1 µM [cytotoxic, single point] | – |
| CNc1ccc(/C=C/c2ccccc2)cc1 | inconclusive: 29.1 µM [cytotoxic, single point] | – |
| COc1ccc(NC(=O)CCc2c(C)nc3c(-c4ccc(F)cc4)c(C)nn3c2C)c(OC)c1 | inactive | – |
| CCCCOc1ccc(-c2nnn(CC(=O)NCc3ccco3)n2)cc1 | inconclusive: 9.2 µM [cytotoxic, partial curve, poor fit] | – |
| Cc1ccc(Cc2c(C(C)(C)C)nc3ccc(Br)cn23)cc1 | inactive | – |
| COC(=O)c1cc(S(=O)(=O)N2CCC(c3ccccc3)C2)c[nH]1 (configuration not stated) | inconclusive: 8.2 µM [cytotoxic, partial curve] | – |
| CCOc1ccc(NC(=O)c2c(NC(=O)c3cccs3)sc3c2CCC(C(C)(C)C)C3)cc1 (configuration not stated) | inactive | – |
| CC(=O)Nc1cccc(-c2ccnc3c2CC(C(=O)NCC2CCOCC2)O3)c1 (configuration not stated) | inconclusive: 29.1 µM [cytotoxic, single point] | – |
| Cc1onc(-c2ccccc2Cl)c1C(=O)N1CCN(c2cccc(Cl)c2)CC1 | active: 2.31 µM | – |
| O=C1N[C@H](Cc2ccccc2)COC(=O)[C@H](Cc2ccc(F)cc2)C/C=C\C[C@@H]1CC(=O)N(CCO)Cc1ccccc1 | inconclusive: 23.1 µM [cytotoxic, single point] | – |
| COc1cccc(S(=O)(=O)Nc2ccc3c(c2)[C@@H]2C[C@@H](CC(=O)NCc4ccc(Cl)cc4)O[C@@H](CO)[C@@H]2O3)c1 | – | inconclusive: -90% |
| CCc1ccccc1NC(=O)C(=O)NCCc1sc(-c2cccc(F)c2)nc1C | inactive | – |
| Cc1cnc2ccccc2c1/C=C/c1ccc(N)cc1 | inconclusive: 23.1 µM [cytotoxic, single point] | – |
| COc1cc(-c2noc(C)c2-c2ccc3[nH]ccc3c2)cc(OC)c1OC | active: 580 nM and active: 1.84 µM | – |
| Cc1c(C(=O)Nc2cccc(Cl)c2)oc2ccc(S(=O)(=O)N3CCC4(CC3)OCCO4)cc12 | inconclusive: 5.8 µM [cytotoxic, full curve, poor fit] | – |
| Cc1cc(C)cc(OCCNC(=O)c2cc(S(=O)(=O)N3CCOCC3)ccc2F)c1 | active: 23.1 µM | – |
| Cc1ccc(NC(=O)COC(=O)c2ccc3c(c2)NC(=O)C2CCCN32)cc1 (configuration not stated) | inconclusive: 25.9 µM [rising, single point] | – |
| C[C@@]12C(=O)Nc3ccccc3C(=O)N1[C@H]1c3cc(Cl)ccc3OC[C@@H]1[C@@H]2c1ccccc1 | inconclusive: 29.1 µM [cytotoxic, single point] | – |
| CCOc1c(Br)cc(CNC2CCCCCCC2)cc1OC | inconclusive: 25.9 µM [cytotoxic, single point] | – |
| COc1ccc(NS(=O)(=O)c2ccc3c(c2)NC(=O)CCS3)cc1Cl | inconclusive: 25.9 µM [cytotoxic, single point] | – |

Complete entries, looked up by structure. Values in the order: Potency | activity change, negative = cytotoxic
`Cc1onc(-c2ccccc2Cl)c1C(=O)N1CCN(c2cccc(Cl)c2)CC1` reads active: 2.31 µM | –
`CC(=O)Nc1nonc1-c1nc2ccccc2n1Cc1ccccc1Br` reads inconclusive: 29.1 µM [cytotoxic, single point] | –
`COc1cccc(S(=O)(=O)Nc2ccc3c(c2)[C@@H]2C[C@@H](CC(=O)NCc4ccc(Cl)cc4)O[C@@H](CO)[C@@H]2O3)c1` reads – | inconclusive: -90%
`COc1cc(-c2noc(C)c2-c2ccc3[nH]ccc3c2)cc(OC)c1OC` reads active: 580 nM and active: 1.84 µM | –

(further entries)

| SMILES | Potency | activity change, negative = cytotoxic |
| --- | --- | --- |
| CCN(c1ccccc1)S(=O)(=O)c1ccc(N)c(OC)c1 | active: 16.4 µM | – |
| CCN(CC)S(=O)(=O)c1cc(NC(=O)C(C)N2CCc3ccccc32)ccc1C (configuration not stated) | inconclusive: 18.4 µM [cytotoxic, single point] | – |
| CCOC(=O)C1CCN(C(=O)c2[nH]c(C(F)(F)F)nc2-c2ccccc2)CC1 | inactive | – |
| O=C1C2C(C(=O)N1CCN1CCN(Cc3ccc([N+](=O)[O-])cc3)CC1)[C@H]1C=C[C@@H]2C1 (some centres not stated) | inactive | – |
| O=C(NCc1ccccc1Cl)c1cc2cccc3c2n1CCS3 | inconclusive: 16.4 µM [cytotoxic, single point] | – |
| COCc1c(C#N)c(NCc2cc(OC)c(OC)c(OC)c2)nc(C)c1[N+](=O)[O-] | inconclusive: 6.51 µM [cytotoxic, full curve] | – |
| CCOC(=O)C1CCCN(C(=O)c2[nH]c3ccccc3c2Sc2ccc(Cl)cc2)C1 (configuration not stated) | inconclusive: 29.1 µM [cytotoxic, single point] | – |
| CC(C)C1N=C(c2ccc3c(c2)OCO3)CC(c2ccccc2O)N1 (configuration not stated) | inconclusive: 7.31 µM [cytotoxic, partial curve, poor fit] | – |
| COCCCNC(=S)NNC(=O)c1csc2ccccc12 | inactive | – |
| COc1ccccc1[C@@H]1C(c2cccc(Cl)c2)=NN(c2ccccc2)[C@H]1C(=O)N1CCOC1=O | inconclusive: 29.1 µM [cytotoxic, single point] | – |
| CC(C)(C)CC(C)(C)SSc1n[nH]c(=S)s1 | inconclusive: 29.1 µM [rising, partial curve, poor fit] | – |
| O=C(COC(=O)CNC(=O)C1CCCCC1)NC1CC1 | inconclusive: 13 µM [rising, partial curve, poor fit] | – |
| Cc1ccc(C)c(-c2csc(N/N=C/c3ccco3)n2)c1 | inconclusive: 9.2 µM [cytotoxic, partial curve] | – |
| CC(=O)N(CCC(c1ccccc1)c1ccco1)Cc1cccs1 (configuration not stated) | inconclusive: 29.1 µM [cytotoxic, single point] | – |
| CCn1c(SCC(=O)Nc2ccccc2-c2ccccc2)nnc1-c1ccoc1C | inconclusive: 25.9 µM [cytotoxic, single point] | – |
| O=C(Cc1cccc2ccccc12)Nc1ccc(OC(F)F)c(Cl)c1 | inconclusive: 29.1 µM [cytotoxic, partial curve, poor fit] | – |
| O=S(=O)(Nc1ccc(Cc2ccncc2)cc1)c1ccc(Br)s1 | inconclusive: 20.6 µM [cytotoxic, single point] | – |
| Cc1ccc(-c2nnc(N3CCN(C(=O)c4cccs4)CC3)c3ccccc23)cc1 | inconclusive: 18.4 µM [cytotoxic, partial curve, poor fit] | – |
| CCOc1ccccc1C(=O)N/N=C/c1cccc2cccnc12 | inconclusive: 25.9 µM [cytotoxic, single point] | – |
| Cn1c(SCC(=O)NC2CCS(=O)(=O)C2)nc2ccccc21 (configuration not stated) | inactive | – |
| CCN1C(=O)[C@H]2[C@@H](c3ccc(SC4CCCCC4)cc3)N3CCCC[C@@]3(C(=O)OC)[C@H]2C1=O | inconclusive: 29.1 µM [cytotoxic, single point] | – |
